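Malaria parasite (P. falciparum) lines kept in red blood cells; parasite DNA is measured by SYBR Green fluorescence after lysis, 72 h after compound addition.
Each compound was titrated across a series from about 0.000037 to 29 µM.
The number is the fitted AC50, the concentration giving a half-maximal change in signal; a lower value means higher potency, whether the curve shows a decrease or an increase.
Calls follow the curve class and fit quality: every row here is inconclusive, covering signal-raising curves and weak, poorly fitted, partial or highest-dose-only inhibition curves.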

Values are in µM.
All entries here are filed as inconclusive.
These entries are mostly ones the record files as inconclusive; other results of the assay are not listed here.
Potencies fitted to partial, single-point or poorly fitting curves are rough.

structure,setting,fitted potency (µM),remark
CC(C)(C)NCC(O)c1ccccc1Cl (centres undefined),DIV30,7.569,"inhibitor, partial curve"
CC(C)(C)NCC(O)c1ccccc1Cl (centres undefined),AA1029,12.59,"inhibitor, partial curve"
CC(C)(C)NCC(O)c1ccccc1Cl (centres undefined),PC15,5.012,"inhibitor, partial curve"
CC(C)(C)NCC(O)c1ccccc1Cl (centres undefined),parasite line B,11.22,"inhibitor, single point"
CC(C)(C)NCC(O)c1ccccc1Cl (centres undefined),CP185,11.22,"inhibitor, single point"
CC(C)(C)NCC(O)c1ccccc1Cl (centres undefined),CP217,10,"inhibitor, single point"
CC(C)(C)NCC(O)c1ccccc1Cl (centres undefined),AS120,12.59,"inhibitor, single point"
CC(C)(C)NCC(O)c1ccccc1Cl (centres undefined),P93_24,11.22,"inhibitor, partial curve"
CC(C)(C)NCC(O)c1ccccc1Cl (centres undefined),N140,8.912,"inhibitor, single point"
CC(C)(C)NCC(O)c1ccccc1Cl (centres undefined),HB3,10,"inhibitor, single point"
CC(C)(C)NCC(O)c1ccccc1Cl (centres undefined),ECU,4.467,"inhibitor, partial curve"
CC(C)(C)NCC(O)c1ccccc1Cl (centres undefined),PC26,4.776,"inhibitor, partial curve"
CC(C)(C)NCC(O)c1ccccc1Cl (centres undefined),ATS95,17.78,"inhibitor, single point"
CC(C)(C)NCC(O)c1ccccc1Cl (centres undefined),CP260,17.78,"inhibitor, single point"
CC(C)NCC(O)c1ccc2ccccc2c1 (centres undefined),FAB9,11.22,"inhibitor, single point"
CC(C)NCC(O)c1ccc2ccccc2c1 (centres undefined),CP250,17.78,"inhibitor, single point"
CC(C)NCC(O)c1ccc2ccccc2c1 (centres undefined),CP256,10,"inhibitor, single point"
CC(C)NCC(O)c1ccc2ccccc2c1 (centres undefined),CP211,10.69,"inhibitor, single point"
CC(C)NCC(O)c1ccc2ccccc2c1 (centres undefined),CP325,19.01,"inhibitor, single point"
CC(C)NCC(O)c1ccc2ccccc2c1 (centres undefined),CP297,16.94,"inhibitor, single point"
CC(C)NCC(O)c1ccc2ccccc2c1 (centres undefined),PC49,11.22,"inhibitor, single point"
CC(C)NCC(O)c1ccc2ccccc2c1 (centres undefined),CP269,16.94,"inhibitor, single point"
CC(C)NCC(O)c1ccc2ccccc2c1 (centres undefined),CP268,16.94,"inhibitor, single point"
CC(C)NCC(O)c1ccc2ccccc2c1 (centres undefined),JCK,11.22,"inhibitor, single point"
CC(C)NCC(O)c1ccc2ccccc2c1 (centres undefined),DFO2036,10,"inhibitor, single point"
CC(C)NCC(O)c1ccc2ccccc2c1 (centres undefined),CP305,16.94,"inhibitor, single point"
CC(C)NCC(O)c1ccc2ccccc2c1 (centres undefined),CP291,13.46,"inhibitor, single point"
CC(C)NCC(O)c1ccc2ccccc2c1 (centres undefined),CP315,21.33,"inhibitor, single point"
CC(C)NCC(O)c1ccc2ccccc2c1 (centres undefined),CP192,19.01,"inhibitor, single point"
CC(C)NCC(O)c1ccc2ccccc2c1 (centres undefined),CP262,13.46,"inhibitor, single point"
CC(C)NCC(O)c1ccc2ccccc2c1 (centres undefined),C2A,10,"inhibitor, single point"
CC(CN(C)C)C(C)(O)Cc1ccc(Cl)cc1 (centres undefined),ATS95,8.912,"inhibitor, partial curve"
CC(CN(C)C)C(C)(O)Cc1ccc(Cl)cc1 (centres undefined),PC26,6.012,"inhibitor, partial curve"
CC(CN(C)C)C(C)(O)Cc1ccc(Cl)cc1 (centres undefined),CP192,10.69,"inhibitor, partial curve, poor fit"
CC(CN(C)C)C(C)(O)Cc1ccc(Cl)cc1 (centres undefined),TAB165,11.22,"inhibitor, partial curve"
CC(CN(C)C)C(C)(O)Cc1ccc(Cl)cc1 (centres undefined),CP265,12.59,"inhibitor, single point"
CC(CN(C)C)C(C)(O)Cc1ccc(Cl)cc1 (centres undefined),CP305,8.492,"inhibitor, partial curve, poor fit"
CC(CN(C)C)C(C)(O)Cc1ccc(Cl)cc1 (centres undefined),N140,10,"inhibitor, single point"
CC(CN(C)C)C(C)(O)Cc1ccc(Cl)cc1 (centres undefined),CP260,7.943,"inhibitor, single point"

Data taken from PubChem BioAssay AID504749, deposited by NCATS (2011).